Assay results from patent publication US5234903A, “Chemically modified hemoglobin as an effective, stable non-immunogenic red blood cell substitute” (Enzon, Inc., priority 1990, dated 1993).

Test: % deoxyHb after PEGylation (OSM3 Hemoximeter)
Assay type: physicochemical

Row | Substance | % deoxyHb (after PEGylation) (0% deoxyHb before PEGylation, SC-PEG) | % deoxyHb (after PEGylation) (20% deoxyHb before PEGylation, SC-PEG) | % deoxyHb (after PEGylation) (35% deoxyHb before PEGylation, SC-PEG) | % deoxyHb (after PEGylation) (50% deoxyHb before PEGylation, SC-PEG) | % deoxyHb (after PEGylation) (70% deoxyHb before PEGylation, SC-PEG) | % deoxyHb (after PEGylation) (90% deoxyHb before PEGylation, SC-PEG) | % deoxyHb (after PEGylation) (95% deoxyHb before PEGylation, SC-PEG) | % deoxyHb (after PEGylation) (0% deoxyHb before PEGylation, BSC-PEG) | % deoxyHb (after PEGylation) (25% deoxyHb before PEGylation, BSC-PEG) | % deoxyHb (after PEGylation) (45% deoxyHb before PEGylation, BSC-PEG) | % deoxyHb (after PEGylation) (61% deoxyHb before PEGylation, BSC-PEG) | % deoxyHb (after PEGylation) (76% deoxyHb before PEGylation, BSC-PEG) | % deoxyHb (after PEGylation) (93% deoxyHb before PEGylation, BSC-PEG)
1 | Example VIII: bovine hemoglobin partially deoxygenated by gas exchange, modified with SC-PEG (M.W. 5141), SC-PEG:Hb 12:1 | 0% | 18% | 33% | 48% | 68% | 88% | 92% | – | – | – | – | – | –
2 | Example X: bovine hemoglobin deoxygenated by gas exchange, modified with BSC-PEG (M.W. 5000), BSC-PEG:Hb 2.5:1, crosslinked | – | – | – | – | – | – | – | 0% | 23% | 43% | 60% | 74% | 91%
